This passage reports binding results from paper PMC3797800, “The Coordination of Cell Growth during Fission Yeast Mating Requires Ras1-GTP Hydrolysis” (PLoS ONE, 2013).

Residue numbers refer to the chain shown, from its start. These are yes or no findings as the source states them, for the method shown. In cells and extracts the contact can be indirect. Some results given as binding are weak or reduced against the parent protein; the word gives no strength. Sequences can lack the tags named with a protein.

The target of one experiment is T1, CFP-Ras1^Q66L (S. pombe) (UniProt P08647).
T1 sequence: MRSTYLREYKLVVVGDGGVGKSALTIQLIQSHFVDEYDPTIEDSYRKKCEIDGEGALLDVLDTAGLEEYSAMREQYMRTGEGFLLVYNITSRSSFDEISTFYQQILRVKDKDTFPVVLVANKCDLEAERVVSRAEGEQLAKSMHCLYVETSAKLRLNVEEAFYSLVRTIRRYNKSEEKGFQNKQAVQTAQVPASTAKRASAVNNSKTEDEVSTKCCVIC
The experiment is described as follows: FRET or BRET; FACS-based FRET (405 nm excitation, 585/42 nm emission), living S. pombe cells co-expressing CFP and YFP fusions; percent of cells with a FRET signal over 0-8 h after 10 μM pheromone. Background: Bioluminescence resonance energy transfer reports proximity on the nanometre scale.

A further experiment addresses T2, CFP-Ras1^G17V (S. pombe) (UniProt P08647).
T2 sequence: T1 sequence with G17V, L66Q
The description is as above.

The next experiment concerns the target T3, CFP-Ras1 (S. pombe, UniProt P08647 1-219).
T3 construct: Ras1, small GTPase of Schizosaccharomyces pombe; ORF amplified from the start codon to the stop codon and cloned behind CFP; also called Ras1-GTP; source: S. pombe (strain JY1618, Δras1Δgap1), expressed from pREP4x (nmt1 promoter), in living cells; not shown: CFP, N-terminal, kept
T3 sequence (looked up): T1 sequence with L66Q
Nature of the experiment: FRET or BRET; sensitized emission on a confocal microscope, living S. pombe cells co-expressing a CFP donor and a YFP acceptor from nmt1 plasmids; single cells 0, 4 and 8 h after 10 μM pheromone; apparent FRET efficiency.

B1: Gap1-YFP (natural protein, S. pombe, UniProt P33277 1-766, looked up)
chain: MTKRHSGTLSSSVLPQTNRLSLLRNRESTSVLYTIDLDMESDVEDAFFHLDRELHDLKQQISSQSKQNFVLERDVRYLDSKIALLIQNRMAQEEQHEFAKRLNDNYNAVKGSFPDDRKLQLYGALFFLLQSEPAYIASLVRRVKLFNMDALLQIVMFNIYGNQYESREEHLLLSLFQMVLTTEFEATSDVLSLLRANTPVSRMLTTYTRRGPGQAYLRSILYQCINDVAIHPDLQLDIHPLSVYRYLVNTGQLSPSEDDNLLTNEEVSEFPAVKNAIQERSAQLLLLTKRFLDAVLNSIDEIPYGIRWVCKLIRNLTNRLFPSISDSTICSLIGGFFFLRFVNPAIISPQTSMLLDSCPSDNVRKTLATIAKIIQSVANGTSSTKTHLDVSFQPMLKEYEEKVHNLLRKLGNVGDFFEALELDQYIALSKKSLALEMTVNEIYLTHEIILENLDNLYDPDSHVHLILQELGEPCKSVPQEDNCLVTLPLYNRWDSSIPDLKQNLKVTREDILYVDAKTLFIQLLRLLPSGHPATRVPLDLPLIADSVSSLKSMSLMKKGIRAIELLDELSTLRLVDKENRYEPLTSEVEKEFIDLDALYERIRAERDALQDVHRAICDHNEYLQTQLQIYGSYLNNARSQIKPSHSDSKGFSRGVGVVGIKPKNIKSSNTVKLSSQQLKKESVLLNCTIPEFNVSNTYFTFSSPSTDNFVIAVYQRGHSKVLVEVCICLDDVLQRRYASNPVVDLGFLTFEANKLYHLFEQLFLRK
notes: ORF amplified from the start codon, stop codon removed, cloned in front of YFP; source: S. pombe, expressed from pREP3x (nmt1 promoter), in living cells; not shown: YFP, C-terminal, kept
For the molecule B1, the binding entry in the experiment with CFP-Ras1^Q66L (S. pombe) was “binds”; in the experiment with CFP-Ras1^G17V (S. pombe), “no binding”; in the experiment with CFP-Ras1, “binds”.
